Test results reported in PMC7310287.
These are yes or no findings as the source states them, for the method shown. In cells and extracts the contact can be indirect. Some binding calls cover weakened binding; strength is not graded here. For part of these data: Where a sequence is shown, tags or fusion partners need not be part of it.

Protein sequences, listed by entry. Tags and fused reporters are not part of them.
UniProt P63208: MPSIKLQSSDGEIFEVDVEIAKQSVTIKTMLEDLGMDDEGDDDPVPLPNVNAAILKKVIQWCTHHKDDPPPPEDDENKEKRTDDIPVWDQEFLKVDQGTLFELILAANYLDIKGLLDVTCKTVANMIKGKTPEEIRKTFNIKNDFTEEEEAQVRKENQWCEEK

What was measured:
Flag-FBXL6 (human) = target: T1, Flag-FBXL6 (human) (UniProt Q8N531); experiment: co-IP; 293T cells expressing Flag-tagged F-box proteins (transfected or infected with retroviruses), Flag M2 resin purification, immunoblot for endogenous partners; IP buffer 100 mM NaCl, 20 mM Tris-Cl pH 8.0, 0.5 mM EDTA, 0.5% Nonidet P-40
T1 sequence: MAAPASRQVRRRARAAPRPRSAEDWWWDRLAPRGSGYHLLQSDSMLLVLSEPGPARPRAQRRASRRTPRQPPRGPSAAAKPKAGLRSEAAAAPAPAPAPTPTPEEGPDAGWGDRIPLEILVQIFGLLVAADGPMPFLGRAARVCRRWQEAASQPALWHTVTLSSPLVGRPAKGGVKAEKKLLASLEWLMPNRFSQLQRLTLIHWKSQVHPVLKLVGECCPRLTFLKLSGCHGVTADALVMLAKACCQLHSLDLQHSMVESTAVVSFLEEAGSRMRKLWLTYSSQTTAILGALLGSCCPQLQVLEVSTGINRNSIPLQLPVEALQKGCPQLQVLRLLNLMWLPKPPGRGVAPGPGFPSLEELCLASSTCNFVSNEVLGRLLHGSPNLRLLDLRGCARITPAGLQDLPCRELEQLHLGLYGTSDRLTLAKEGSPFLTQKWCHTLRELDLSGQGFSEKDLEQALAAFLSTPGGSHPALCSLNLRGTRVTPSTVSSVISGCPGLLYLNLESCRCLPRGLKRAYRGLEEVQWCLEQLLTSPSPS

[1] = target: T2, FBXL6 (endogenous) (human (endogenous in Hep3B, SMMC-7721)) (UniProt Q8N531); experiment: co-IP; endogenous proteins; SMMC-7721 cell lysate immunoprecipitated with anti-FBXL6 antibody or IgG, immunoblot for HSP90AA1 and FBXL6
T2 sequence: T1 sequence

Substance | binding (Flag-FBXL6 (human)) | binding [1]
HSP90AA1 (from UniProt P07900 1-732) | binds | binds
SKP1 (from UniProt P63208 1-163) | binds | 
